These are yes or no findings as the source states them, for the method shown. Binding can be weak; no strength is given. For part of these data: In cells and extracts the contact can be indirect. Blank lines part the entries; values can stand above or below the molecule they belong to.
What was measured:
[1] = target: T1, Fip1_(226) (Fip1 residues 1–226), purified from E. coli (yeast) (UniProt P45976); test: NMR titration; labelled Fip1_(226) with unlabelled Yth1ZF4, Pap1, or both together; chemical shift perturbations and line broadening (1H,15N HSQC; 13C-detect CON); 278 K, 50 mM HEPES (pH 7.4), 150 mM NaCl; both purified
T1 sequence: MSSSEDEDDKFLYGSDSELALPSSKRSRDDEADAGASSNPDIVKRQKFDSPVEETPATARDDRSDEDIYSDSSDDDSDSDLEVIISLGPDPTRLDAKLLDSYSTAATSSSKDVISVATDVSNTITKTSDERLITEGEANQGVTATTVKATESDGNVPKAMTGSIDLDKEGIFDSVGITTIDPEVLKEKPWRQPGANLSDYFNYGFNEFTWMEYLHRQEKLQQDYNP

By UniProt entry, the sequences of proteins in these tests, tags left out. Where a name states a change or a piece, a line headed by the entry shows the natural chain unless it says otherwise.
UniProt Q06102: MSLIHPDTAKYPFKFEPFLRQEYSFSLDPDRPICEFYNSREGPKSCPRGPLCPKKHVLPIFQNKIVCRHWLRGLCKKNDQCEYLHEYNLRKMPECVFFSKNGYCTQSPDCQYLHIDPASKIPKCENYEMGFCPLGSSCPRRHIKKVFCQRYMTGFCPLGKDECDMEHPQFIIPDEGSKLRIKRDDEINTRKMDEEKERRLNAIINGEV

Yth1_(ΔZF5C) (yeast) = test: pull-down; StrepII (SII) tag on Pfs2 as bait; polymerase module subunits co-expressed in Sf9 cells; clarified lysate on Streptactin resin, 4°C; eluate analysed by SDS-PAGE
[2] = target: Yth1ZF4 (Yth1 zinc finger 4) (yeast) (UniProt Q06102); test: NMR titration; 15N-labelled Yth1 construct with unlabelled Fip1_(226), equimolar, 75 µM; chemical shift perturbations and line broadening; 700 MHz, 298 K, 50 mM HEPES (pH 7.4), 150 mM NaCl; both purified

binding [1]: binds
Molecule: Yth1ZF4 (Yth1 zinc finger 4) (from UniProt Q06102) (domain or fragment)

binding (Yth1_(ΔZF5C) (yeast)): binds
B1: Fip1 (protein, UniProt P45976 1-327)
chain: MSSSEDEDDKFLYGSDSELALPSSKRSRDDEADAGASSNPDIVKRQKFDSPVEETPATARDDRSDEDIYSDSSDDDSDSDLEVIISLGPDPTRLDAKLLDSYSTAATSSSKDVISVATDVSNTITKTSDERLITEGEANQGVTATTVKATESDGNVPKAMTGSIDLDKEGIFDSVGITTIDPEVLKEKPWRQPGANLSDYFNYGFNEFTWMEYLHRQEKLQQDYNPRRILMGLLSLQQQGKLNSANDTDSNLGNIIDNNNNVNNANMSNLNSNMGNSMSGTPNPPAPPMHPSFPPLPMFGSFPPFPMPGMMPPMNQQPNQNQNQNSK

binding [2]: binds
B2: Fip1_(226) (Fip1 residues 1–226), purified from E. coli (domain or fragment, yeast, UniProt P45976 1-226, looked up)
chain: MSSSEDEDDKFLYGSDSELALPSSKRSRDDEADAGASSNPDIVKRQKFDSPVEETPATARDDRSDEDIYSDSSDDDSDSDLEVIISLGPDPTRLDAKLLDSYSTAATSSSKDVISVATDVSNTITKTSDERLITEGEANQGVTATTVKATESDGNVPKAMTGSIDLDKEGIFDSVGITTIDPEVLKEKPWRQPGANLSDYFNYGFNEFTWMEYLHRQEKLQQDYNP
notes: Isotopically labelled (15N, 13C, 2H) where it is the observed species in NMR; cloned in pET28a+; also called Fip226; source: E. coli BL21 Star, purified (Ni-NTA, TEV cleavage, Superdex 75); not shown: His tag, N-terminal, cleaved
